Assay: general procedure: Fmoc solid-phase peptide synthesis; Rink amide AM resin; HCTU; HATU/HOAt; HBTU/HOBt for cyclisation
Conditions: whole synthesis, TFA salt

Substance: H2N-K(Dabcyl)-TSAVLQSGFRKM-E(EDANS)-NH2
- isolated mass: 42 mg
- isolated yield (based on resin loading, scale of the general procedure 300 mg resin): 12.6%
